From article PMC3979138 come the findings set out here.

The assay addresses T1, Endothelial protein C receptor (human (endogenous in RASFs)) (UniProt Q9UNN8).
T1 sequence: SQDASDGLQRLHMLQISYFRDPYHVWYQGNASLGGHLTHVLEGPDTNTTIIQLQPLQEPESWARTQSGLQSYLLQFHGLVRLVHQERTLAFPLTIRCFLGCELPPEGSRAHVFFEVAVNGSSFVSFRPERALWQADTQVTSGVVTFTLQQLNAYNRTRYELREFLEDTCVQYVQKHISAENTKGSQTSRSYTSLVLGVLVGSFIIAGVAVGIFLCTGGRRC
The assay can be described thus: co-IP; RASF lysates (20 mM HEPES, 1% Triton X, 10% glycerol, protease and phosphate inhibitors); immunoprecipitation with anti-human EPCR antibody and A/G Plus-agarose; Western blot with anti-EPCR, then anti-sPLA2V antibody on the same membrane, non-reducing conditions. (In general: In western blotting, separated proteins are transferred to a membrane and probed.)

No constants are given. Whether binding was seen depends on the method and setting. Binding seen in cells or lysates may run through a third protein. Some results given as binding are weak or reduced against the parent protein; the word gives no strength.

B1: Group V secretory phospholipase A2 (enzyme, UniProt P39877 21-138)
chain: GLLDLKSMIEKVTGKNALTNYGFYGCYCGWGGRGTPKDGTDWCCWAHDHCYGRLEEKGCNIRTQSYKYRFAWGVVTCEPGPFCHVNLCACDRKLVYCLKRNLRSYNPQYQYFPNILCS
With B1, the binding entry is “binds”.
